Values quoted from earlier work in patent US5350748A, “3-thio or amino substituted-benzo[b]thiophene-2-carboxamides and 3-oxygen, thio, or amino substituted-benzofuran-2-carboxamides as inhibitors of cell adhesion” (Warner-Lambert Company, priority 1993, dated 1994).

System: TPA-mediated CD4 down regulation and HIV expression in HIV-infected cells
Conditions: Hamamoto et al. 1989; cited from earlier work

CN[C@@H]1C[C@H]2O[C@@](C)([C@@H]1OC)n1c3ccccc3c3c4c(c5c6ccccc6n2c5c31)C(=O)NC4 [Staurosporine, staurosporine]
inhibition of TPA-mediated CD4 down regulation and augmentation of HIV expression: effective TPA inhibitor for both of these actions
